Data from the supplement of paper PMC12889115.
Some of the results follow. Values are raw readings; no control value is given beside them.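 First-pass screen: polymyxin B was added at a level that permeabilizes the Salmonella outer membrane while sparing the inner membrane. DMSO wells, with and without polymyxin B, defined maximum growth. Because plates differed from one another, each plate's data were ranked separately and the compounds with the lowest OD600 were carried forward as hits.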

Test system: Salmonella enterica serovar Typhimurium SL1344
Assay: bacterial growth OD600 after 18 h with compound and polymyxin B; higher = more bacterial growth (less inhibition)
Settings: 50 µM, Mueller-Hinton broth

Structure (SMILES) | bacterial growth OD600 (polymyxin B 1 µg/mL) | bacterial growth OD600 (polymyxin B 0.75 µg/mL)
CCc1[nH]c2c(CNC(C)C(C)(C)O)cc(F)cc2c1C (stereo not given) | 0.734 | –
COC(=O)CCCNC(=O)c1cc(Cn2c(C)nc3ccccc32)[nH]n1 | 0.909 | –
COc1cccc([C@@H](C)NC(=O)c2cn(CC(C)C)cc(C(=O)N3CCCCCC3)c2=O)c1 | – | 0.831
O=C(NCCc1cnccn1)C1CCC(=O)N(CCc2ccccc2)C1 (stereo not given) | 0.896 | –
CS(=O)(=O)N1CCC(C2CCN(Cc3cccnc3)CC2)C1 (stereo not given) | – | 0.872
CC(=O)N1CCC[C@H]1C(=O)N1CCC(CCC(=O)N(C)Cc2ccccc2)CC1 | 0.887 | –
COc1ccc(-n2ncc(C(C)NCc3cc4c(cc3Cl)OCO4)c2C)cc1 (stereo not given) | 1.06 | –
O=C(CC(F)(F)F)N1CCc2[nH]nc(-c3ccc4c(c3)OCO4)c2C1 | – | 0.815
COc1cccc(CN2CCNC(=O)C2CC(=O)NCC2CCN(C(C)C)CC2)c1OC (stereo not given) | 0.721 | –
CN(CCC(=O)NCC1Cc2cc(-c3cnc4ccccc4c3)cc(F)c2O1)C1CCS(=O)(=O)C1 (stereo not given) | – | 0.786
C=C(C)CN(C)C(=O)c1coc(COc2ccc3c(c2)OCO3)n1 | 0.904 | –
COC(=O)c1cc(CNC(=O)CC2NC(=O)c3ccccc32)cc(NC(=O)c2cc(C)nn2C)c1 (stereo not given) | – | 0.881
COC(=O)CNC(=O)c1ccc(OC2CCN(C3CCCC3)CC2)c(OC)c1 | – | 0.843
COc1ccc2cc(C(=O)C3CCCN(S(=O)(=O)c4c(C)noc4C)C3)ccc2c1 (stereo not given) | 0.826 | –
CC(=O)c1cccc(OCc2cc(C(=O)N(C)Cc3sccc3C)n[nH]2)c1 | 1.03 | –
O=C(Nc1cccc(-c2cccc(Cl)c2)c1)C1CCN(C(=O)C2CCCO2)CC1 (stereo not given) | 0.08 | –
COCC(=O)Nc1cc(C(=O)N(C)Cc2ccc3nsnc3c2)c2c(c1)nc(C1CCC1)n2C | – | 0.902
CC1CCN(Cc2nnnn2CCCC(=O)N2CCC(c3ccncc3)CC2)CC1 | 1.03 | –
O=C(Cc1cccc(F)c1)NC1CC(=O)N(C2CCCCCC2)C1 (stereo not given) | 0.921 | –
CN(CCC1CCCCO1)C(=O)c1csc2nc(-c3ccccc3)cn12 (stereo not given) | 0.989 | –

Quoted at random: 2 entries already listed.
Structure (SMILES) | bacterial growth OD600 (polymyxin B 1 µg/mL) | bacterial growth OD600 (polymyxin B 0.75 µg/mL)
COC(=O)CCCNC(=O)c1cc(Cn2c(C)nc3ccccc32)[nH]n1 | 0.909 | –
COC(=O)c1cc(CNC(=O)CC2NC(=O)c3ccccc32)cc(NC(=O)c2cc(C)nn2C)c1 (stereo not given) | – | 0.881
